Experimental data as given in PMC7931232.
These are yes or no findings as the source states them, for the method shown.

B1: OSM-3 1-362 construct (core motor domain and 35 additional C-terminal residues) (domain or fragment, UniProt P46873-1 1-362)
chain: MAAESVRVAVRCRPFNQREKDLNTTLCVGMTPNVGQVNLNAPDGAAKDFTFDGAYFMDSTGEQIYNDIVFPLVENVIEGYNGTVFAYGQTGSGKTFSMQGIETIPAQRGVIPRAFDHIFTATATTENVKFLVHCSYLEIYNEEVRDLLGADNKQKLEIKEQPDRGVYVAGLSMHVCHDVPACKELMTRGFNNRHVGATLMNKDSSRSHSIFTVYVEGMTETGSIRMGKLNLVDLAGSERQSKTGATGDRLKEATKINLSLSALGNVISALVDGKSKHIPYRDSKLTRLLQDSLGGNTKTIMIACVSPSSDNYDETLSTLRYANRAKNIKNKPTINEDPKDALLREYQEEIARLKSMVQPGAVG
B2: OSM-3 1-337 construct (core motor domain and 10 additional C-terminal residues) (domain or fragment, UniProt P46873-1 1-337)
chain: MAAESVRVAVRCRPFNQREKDLNTTLCVGMTPNVGQVNLNAPDGAAKDFTFDGAYFMDSTGEQIYNDIVFPLVENVIEGYNGTVFAYGQTGSGKTFSMQGIETIPAQRGVIPRAFDHIFTATATTENVKFLVHCSYLEIYNEEVRDLLGADNKQKLEIKEQPDRGVYVAGLSMHVCHDVPACKELMTRGFNNRHVGATLMNKDSSRSHSIFTVYVEGMTETGSIRMGKLNLVDLAGSERQSKTGATGDRLKEATKINLSLSALGNVISALVDGKSKHIPYRDSKLTRLLQDSLGGNTKTIMIACVSPSSDNYDETLSTLRYANRAKNIKNKPTINEDP

What was measured:
[1] = molecular target: OSM-3 1-362 construct (core motor domain and 35 additional C-terminal residues) (Caenorhabditis elegans) (UniProt P46873); test: SEC-MALS; Superdex 200 Increase 10/300 GL in 25 mM Pipes-K pH 6.8, 100 mM NaCl, 2 mM MgCl2, 1 mM EGTA, 25 uM ATP; 100 uL samples at about 2 mg/mL OSM-3; both purified
[2] = molecular target: OSM-3 1-337 construct (core motor domain and 10 additional C-terminal residues) (Caenorhabditis elegans) (UniProt P46873); test: as above

| Binder | binding [1] | binding [2] |
| --- | --- | --- |
| B1 | no binding (tested: about 2 mg·mL^−1) |  |
| B2 |  | no binding (tested: about 2 mg·mL^−1) |
